Measured values as given in ChEMBL document CHEMBL4842360, “Discovery of a Bicyclic Peptidyl Pan-Ras Inhibitor” (J Med Chem, 2021).

Experiment: Stability in human serum assessed as compound remaining at 100 uM measured after 24 hrs by RP-HPLC method
Format: ADME, cell-free
Settings: read-out: Stabilty

remaining at 24 h, 100 µM: 85%
SMILES: C[C@@H](NC(=O)[C@H](Cc1ccccc1)NC(=O)[C@@H](CCCNC(=N)N)NC(=O)[C@H](CCCN)NC(=O)[C@@H]1CNC(=O)c2cc3cc(c2)C(=O)N[C@H](Cc2ccc4ccccc4c2)C(=O)N[C@@H](CO)C(=O)N[C@@H](CC(N)=O)C(=O)N[C@H](Cc2ccc4ccccc4c2)C(=O)N[C@@H](c2ccccc2)C(=O)N[C@@H](CCCCNC3=O)C(=O)N[C@H](Cc2ccccc2)C(=O)N[C@@H](CCC(N)=O)C(=O)N[C@H](CCCNC(=N)N)C(=O)N[C@@H](CCCNC(=N)N)C(=O)N1)C(N)=O
